Reference: PMC5077136
Results are given in words; binding and its absence hold for the method and conditions named. Binding seen in cells or lysates may run through a third protein. Some results given as binding are weak or reduced against the parent protein; the word gives no strength. Tags and fused reporters may be left off the sequences shown.

Protein sequences, listed by entry. Tags and fused reporters are not part of them.
UniProt G5ECU1: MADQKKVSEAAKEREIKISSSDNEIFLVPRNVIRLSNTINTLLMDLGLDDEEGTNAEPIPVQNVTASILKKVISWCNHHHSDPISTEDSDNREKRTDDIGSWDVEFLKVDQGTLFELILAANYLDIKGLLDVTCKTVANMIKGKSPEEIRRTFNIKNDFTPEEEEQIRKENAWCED

Target: T1, GST-WDR23a fusion protein (C. elegans) (UniProt P90794)
T1 sequence: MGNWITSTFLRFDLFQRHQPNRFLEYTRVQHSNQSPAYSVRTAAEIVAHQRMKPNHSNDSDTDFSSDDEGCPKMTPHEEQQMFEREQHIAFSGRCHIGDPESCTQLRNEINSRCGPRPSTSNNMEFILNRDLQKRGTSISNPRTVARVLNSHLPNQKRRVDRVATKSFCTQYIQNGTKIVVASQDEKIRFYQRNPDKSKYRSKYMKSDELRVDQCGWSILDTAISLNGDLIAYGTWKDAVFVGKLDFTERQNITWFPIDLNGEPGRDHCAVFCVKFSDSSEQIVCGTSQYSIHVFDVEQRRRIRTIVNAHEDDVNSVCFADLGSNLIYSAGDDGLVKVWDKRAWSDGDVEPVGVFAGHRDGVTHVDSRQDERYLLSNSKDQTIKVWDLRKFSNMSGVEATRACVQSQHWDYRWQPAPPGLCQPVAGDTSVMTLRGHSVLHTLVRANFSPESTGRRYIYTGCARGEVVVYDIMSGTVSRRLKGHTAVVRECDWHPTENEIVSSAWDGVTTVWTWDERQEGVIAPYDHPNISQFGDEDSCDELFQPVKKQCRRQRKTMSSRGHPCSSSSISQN
Assay: pull-down; HEK293 cells co-transfected with the GST fusion and V5-SKR-1; lysed two days after transfection; glutathione-Sepharose 4B at room temperature for 1 h; washed with PBS+0.1% Triton-X; blot with anti-V5 mAb

binding: binds
Substance: V5-SKR-1 fusion protein (from UniProt G5ECU1 1-176)
